This is one part of the list.
biological target: T1, OsSMF1 (Oryza sativa, UniProt Q6ZLB0 1-436); assay: protein-binding microarray (RPBM); PBS, 2% BSA, 51.3 ng/ul salmon testes DNA, 50 uM zinc acetate, 200 nM TF, 25 C, 1 h; high values mean tight binding; settings: protein: recombinant; tags: N-terminal polyhistidine and DsRed monomer fusion (pET32a); chain copies: 2; label: CyDye5-dUTP incorporated in the synthesized complementary strand; 3' TTTTT single-stranded linker to array surface; dsDNA, one strand shown
T1 sequence: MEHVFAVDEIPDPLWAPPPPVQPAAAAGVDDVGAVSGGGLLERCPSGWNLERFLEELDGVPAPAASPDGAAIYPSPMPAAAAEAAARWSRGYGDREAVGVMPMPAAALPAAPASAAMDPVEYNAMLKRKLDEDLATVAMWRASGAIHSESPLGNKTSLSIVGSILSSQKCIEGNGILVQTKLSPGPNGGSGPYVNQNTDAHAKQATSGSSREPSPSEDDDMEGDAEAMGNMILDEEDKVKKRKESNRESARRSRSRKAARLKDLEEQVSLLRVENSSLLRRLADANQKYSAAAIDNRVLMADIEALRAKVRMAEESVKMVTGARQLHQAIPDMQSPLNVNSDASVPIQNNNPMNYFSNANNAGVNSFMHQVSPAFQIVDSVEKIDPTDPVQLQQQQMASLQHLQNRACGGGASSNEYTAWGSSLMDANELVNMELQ
Summary of the method: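 Polyhistidine-tagged DsRed fusions of transcription factors, joined at the N-terminus, were expressed in E. coli BL21-CodonPlus and isolated on Ni–NTA. They were incubated at 200 nM for 1 h at 25 °C on a custom Agilent array, double-stranded and BSA-blocked, in PBS with 2% BSA, salmon testes DNA and 50 µM zinc acetate. The binding signal is per-feature fluorescence intensity (arbitrary units) read on an Axon 4000B scanner after washing.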

| Sequence | binding signal |
| --- | --- |
| CTCCCTCACGGTCACGCCGGCTCTCTCCCCTCCTCTCTCCCGGAGTCACCTAGTGCAG | 3170 fluorescence intensity (a.u.) |
| GGTTTCACATTAATCTGATCCTCAACTGTAATATACCAATCGGAGTCACCTAGTGCAG | 3220 fluorescence intensity (a.u.) |
| ATGTATTTTATGACAACAGAGTAAACAATGTGATATACATCGGAGTCACCTAGTGCAG | 3220 fluorescence intensity (a.u.) |
| CATTTGTTTTATTTTAGCATTTGTCACTTACATGTGGGACCGGAGTCACCTAGTGCAG | 3180 fluorescence intensity (a.u.) |
| TGGTTGCAAGTTTCTAGCTATATATGAGTTGTATAATCGGCGGAGTCACCTAGTGCAG | 3290 fluorescence intensity (a.u.) |
| TGTTTAACAGGGTTCATGGCCCCTAATCCATTACTGCCCCCGGAGTCACCTAGTGCAG | 4100 fluorescence intensity (a.u.) |
| CACCGATGCACCCATCCATCCCATCATATGATCCTATCCGCGGAGTCACCTAGTGCAG | 19000 fluorescence intensity (a.u.) |
| CACTTGGTCGGTGCACAAGGACGTCACCAAGTACGCGTCACGGAGTCACCTAGTGCAG | 8230 fluorescence intensity (a.u.) |
| TTTATTTATATTAGACTTTTCGGCTCAGACTCATAAGCATCGGAGTCACCTAGTGCAG | 19800 fluorescence intensity (a.u.) |
| GGGACTAGTGTGTCATGGGTGTAGCTGTACATCTACTTTCCGGAGTCACCTAGTGCAG | 5760 fluorescence intensity (a.u.) |
| TCGGAATGACTCAACCAACTCAGTTTGGTATAACCGACTTCGGAGTCACCTAGTGCAG | 4880 fluorescence intensity (a.u.) |
| ACCAAGATCCTGTGGATGAGGAGGATGCGTGTGCTCAGGCCGGAGTCACCTAGTGCAG | 3960 fluorescence intensity (a.u.) |
| ACAAAGGATGTAGAAATATGGAGCTGAGTAATCTAGCCAACGGAGTCACCTAGTGCAG | 3780 fluorescence intensity (a.u.) |
| CCGTGCAGCTCTCACTTGATCATCTTATCGCTACTCAGCCCGGAGTCACCTAGTGCAG | 3730 fluorescence intensity (a.u.) |
| CCAATTCGCCATCCGTCTGTCGACCGCATCTTAATATCCGCGGAGTCACCTAGTGCAG | 4340 fluorescence intensity (a.u.) |
| CCTCCGGCCAAGTGACACCGCAGCTCACCTCACCTCACCTCGGAGTCACCTAGTGCAG | 3950 fluorescence intensity (a.u.) |
| TGGTGTACTGTAAAGAATTCTCCTTGATTTAATGTTGTCACGGAGTCACCTAGTGCAG | 3500 fluorescence intensity (a.u.) |
| TTATCGTGATATTAACACAGCCTTTCTTCCATGTTGCTTGCGGAGTCACCTAGTGCAG | 30200 fluorescence intensity (a.u.) |
| GAGGGGTTACGCGTTAGGCGCTGCCACGTGTATCGATCGGCGGAGTCACCTAGTGCAG | 21900 fluorescence intensity (a.u.) |
| CGAGCCCACTCGAGGTGACTCACCTTGTTCCTCCACCAGTCGGAGTCACCTAGTGCAG | 18500 fluorescence intensity (a.u.) |
| GCCTTCTCCACGCACTCTGCTGAGTGCTCGATCGCTCACTCGGAGTCACCTAGTGCAG | 3210 fluorescence intensity (a.u.) |

Some of the entries so far, field by field:
GAGGGGTTACGCGTTAGGCGCTGCCACGTGTATCGATCGGCGGAGTCACCTAGTGCAG
  binding signal = 21900 fluorescence intensity (a.u.)
CGAGCCCACTCGAGGTGACTCACCTTGTTCCTCCACCAGTCGGAGTCACCTAGTGCAG
  binding signal = 18500 fluorescence intensity (a.u.)

More entries:

| Sequence | binding signal |
| --- | --- |
| GGTTTGGCCATGCATGCATGCATGCGTGCTTCCCACGTGACGGAGTCACCTAGTGCAG | 3680 fluorescence intensity (a.u.) |
| CGAATTTGCGTCACTCAAATGGCATTTGTCACTTAAAGCGCGGAGTCACCTAGTGCAG | 6890 fluorescence intensity (a.u.) |
| GGACGGCGCCGACGTGGGTTGGGGAAGGCTGCTCGGCTCACGGAGTCACCTAGTGCAG | 4580 fluorescence intensity (a.u.) |
| GGCCTCGCTCCCCGTGGCCGTGGCCCGCTCCTATAAATAGCGGAGTCACCTAGTGCAG | 29900 fluorescence intensity (a.u.) |
| AATGTACGGGCACACGAGTGCACGACATCATGTTATGCGGCGGAGTCACCTAGTGCAG | 3380 fluorescence intensity (a.u.) |
| CGTCTCGCCGCCCGTCTCCGGCGGCCGCACGTTGGCATTTCGGAGTCACCTAGTGCAG | 4100 fluorescence intensity (a.u.) |
| ATTAATAACCTGAGGTCATCAGTGATATCTACGTGGGCTGCGGAGTCACCTAGTGCAG | 4760 fluorescence intensity (a.u.) |
| AACCCGTTGTAAGTTTGGTTAAATTTTATCATTCATCCTTCGGAGTCACCTAGTGCAG | 3530 fluorescence intensity (a.u.) |
| TTATACAAACAGTCCTGAATGCCAAGTCTGGTTAACACATCGGAGTCACCTAGTGCAG | 31600 fluorescence intensity (a.u.) |
| GCGCTGTTTATGACTCCGCCAGTGTCTTGAGCTAAGAGCCCGGAGTCACCTAGTGCAG | 5270 fluorescence intensity (a.u.) |
| CCAGTTCCGTTTCCCACACTAGACTTAGAGAGAGAGGTAGCGGAGTCACCTAGTGCAG | 11400 fluorescence intensity (a.u.) |
| TAGCCACGTAATTTTGACAGGCTGCTCTTGCAGTTAGTGGCGGAGTCACCTAGTGCAG | 8040 fluorescence intensity (a.u.) |
| TTCGCTAACTGGGTATAGGTGGGCCAAGTTTACTCTTGGGCGGAGTCACCTAGTGCAG | 3380 fluorescence intensity (a.u.) |
| ACTTTGAAAGCACTGTTTCAGATGTGAATCACCCTTTGCTCGGAGTCACCTAGTGCAG | 3250 fluorescence intensity (a.u.) |
| AACCAATGAATGTTTGTGTCACGCACGCATCCACCGATCCCGGAGTCACCTAGTGCAG | 3550 fluorescence intensity (a.u.) |
| TTTCATCTTCACGTAGATTGCGTTGTCATGCAGGTCATTTCGGAGTCACCTAGTGCAG | 4600 fluorescence intensity (a.u.) |
| AAGAATCGAAACGTTAGAAAAGAGGACACGTCGCCAAAAGCGGAGTCACCTAGTGCAG | 3520 fluorescence intensity (a.u.) |
| GTCCTGGTGTTCCGATCGATCGACGTGGTGTACATGCATCCGGAGTCACCTAGTGCAG | 4910 fluorescence intensity (a.u.) |
| CCAGTAGAGATGGCTTTCGTGAGCGTGGTGCACATGATCTCGGAGTCACCTAGTGCAG | 19700 fluorescence intensity (a.u.) |
| GACCATTCAACTTCTCGTTATCGACAAGTACTCCTCGAAACGGAGTCACCTAGTGCAG | 4080 fluorescence intensity (a.u.) |
| ATTGATTGGCCCAAGATATCCATCGGCATCGGCGCCGGCGCGGAGTCACCTAGTGCAG | 3660 fluorescence intensity (a.u.) |

From publication PMC7819943, “Rice protein-binding microarrays: a tool to detect cis-acting elements near promoter regions in rice”
